This test concerns the target FLAG-DDX39B (human) (UniProt Q13838). The experiment in a line: affinity purification with mass spectrometry; lysates of CRC cells stably expressing FLAG-vector or FLAG-DDX39B, anti-FLAG M2 magnetic beads, SDS-PAGE bands, LC-MS/MS.

The chains behind the UniProt entries cited, without tags or fusion partners. Where a name states a change or a piece, a line headed by the entry shows the natural chain unless it says otherwise.
UniProt Q13838: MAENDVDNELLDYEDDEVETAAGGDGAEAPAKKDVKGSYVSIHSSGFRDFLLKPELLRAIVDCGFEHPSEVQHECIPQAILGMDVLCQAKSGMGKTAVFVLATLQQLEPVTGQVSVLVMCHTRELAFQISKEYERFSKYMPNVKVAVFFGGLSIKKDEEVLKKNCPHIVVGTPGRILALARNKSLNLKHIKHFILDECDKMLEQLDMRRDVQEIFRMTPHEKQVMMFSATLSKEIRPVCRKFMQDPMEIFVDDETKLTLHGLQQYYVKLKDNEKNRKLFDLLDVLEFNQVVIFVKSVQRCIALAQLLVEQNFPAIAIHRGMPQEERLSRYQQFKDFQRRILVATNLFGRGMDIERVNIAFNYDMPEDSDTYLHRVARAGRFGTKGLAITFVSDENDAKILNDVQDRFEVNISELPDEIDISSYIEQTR
UniProt P04406: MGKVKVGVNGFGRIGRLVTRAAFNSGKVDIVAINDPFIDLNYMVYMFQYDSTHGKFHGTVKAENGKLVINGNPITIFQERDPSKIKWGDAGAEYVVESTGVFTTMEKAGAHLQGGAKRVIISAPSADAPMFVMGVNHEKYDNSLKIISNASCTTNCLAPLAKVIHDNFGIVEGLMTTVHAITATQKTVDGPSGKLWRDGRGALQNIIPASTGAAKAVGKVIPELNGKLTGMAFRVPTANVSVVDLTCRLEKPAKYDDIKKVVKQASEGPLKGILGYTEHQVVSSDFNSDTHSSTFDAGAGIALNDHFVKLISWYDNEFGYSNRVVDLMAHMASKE
UniProt P14618: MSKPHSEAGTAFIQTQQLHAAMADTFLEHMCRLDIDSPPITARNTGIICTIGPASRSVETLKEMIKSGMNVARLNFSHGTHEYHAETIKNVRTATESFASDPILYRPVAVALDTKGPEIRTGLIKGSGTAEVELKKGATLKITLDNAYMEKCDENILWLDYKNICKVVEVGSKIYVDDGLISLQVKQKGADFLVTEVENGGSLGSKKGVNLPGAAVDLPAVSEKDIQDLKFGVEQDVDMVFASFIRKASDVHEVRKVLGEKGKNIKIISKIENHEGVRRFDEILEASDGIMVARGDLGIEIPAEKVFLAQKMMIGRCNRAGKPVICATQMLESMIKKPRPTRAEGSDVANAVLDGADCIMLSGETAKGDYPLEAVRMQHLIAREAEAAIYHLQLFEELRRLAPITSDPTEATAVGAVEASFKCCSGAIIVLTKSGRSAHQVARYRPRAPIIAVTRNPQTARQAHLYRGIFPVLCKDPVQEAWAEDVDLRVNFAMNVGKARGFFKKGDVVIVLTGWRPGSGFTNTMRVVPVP

Results are given in words; binding and its absence hold for the method and conditions named. In cells and extracts the contact can be indirect. These calls come from enrichment with a bait or labelling near it, and not all partners need be listed.

On to GAPDH (from UniProt P04406 1-335), for which the binding entry is recorded as “binds”.

As to PKM (from UniProt P14618 1-531), the binding entry is reported as “binds”.
